# Values quoted from earlier work as cited in US20230372437A1, “COMPOSITIONS AND METHODS FOR THE TREATMENT OF HAIR LOSS AND OTHER CONDITIONS” (ProTransit Nanotherapy LLC, priority 2020, published 2023).
# At least one structure is not confirmed: it was looked up by name or label, or the drawing left a doubt.
# Tested on: normal scalp
# Details: topical minoxidil, most users
smiles,measurement,value
Nc1cc(N2CCCCC2)nc(N)[n+]1[O-] [minoxidil],Increase of hairs per cm^2 of scalp,6-9 hairs/cm^2
